Experimental data reported in publication PMC12412246.
Results are given in words; binding and its absence hold for the method and conditions named. Binding seen in cells or lysates may run through a third protein. These calls come from enrichment with a bait or labelling near it, and not all partners need be listed. No binding means not detected with the bait.

Chains of the proteins cited; added tags and fusions are not shown.
UniProt P28574: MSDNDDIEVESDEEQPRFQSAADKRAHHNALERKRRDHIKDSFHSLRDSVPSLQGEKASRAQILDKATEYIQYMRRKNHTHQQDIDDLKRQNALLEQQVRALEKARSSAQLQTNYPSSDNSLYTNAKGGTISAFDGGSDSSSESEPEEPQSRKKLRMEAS
UniProt P50538: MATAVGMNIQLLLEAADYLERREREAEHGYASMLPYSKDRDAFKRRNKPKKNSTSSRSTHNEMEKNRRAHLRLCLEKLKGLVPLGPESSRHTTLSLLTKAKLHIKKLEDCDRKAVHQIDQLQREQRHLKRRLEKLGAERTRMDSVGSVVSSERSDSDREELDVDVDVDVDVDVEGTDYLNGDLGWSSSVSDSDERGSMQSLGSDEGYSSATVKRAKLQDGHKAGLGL

B1: MNT (protein, UniProt O08789 1-591)
chain: MSIETLLEAARFLEWQAQQQQRAREEQERLRLEREREREQEQKRASNLARLAHALPVEEPRIEAPPLPLSPPAPPPAPPPPLATPAPLTVIPIPVVTNSPQSLPPPPPLPPAAQPLPLAPRQPALVSTPGLSIKEPVTLPTRPQVPTPAPLLPDAKTTVAPTGSPKPLQPLPAPILTIAPHPGVQPQLAPQQPPPPTLGTLKLAPAEEAKSSEQKKRPGGIGTREVHNKLEKNRRAHLKECFETLKRNIPNVDDKKTSNLSVLRTALRYIQSLKRKEKEYEHEMERLAREKIATQQRLAELKHELSQWMDVLEIDRVLRQTGQPEDDQASTSTASEGEDNVDEEMEGDRAGLGPPKLNHRPQPELLKSALPTPSTAPAPLPTHPHPHPHPVALSPAHLPVQQQQPPQQKTPLPAPPPPPATPTQTLVPAPAHLVATAGGGSTVIAHTATTHASVIQTVNHVLQGPGGKHIAHIAPSAPSPAVQLAPATPPIGHITVHPATLNHVAHLGSQLPLYPQPVAVSQPVAVSHIAHTLSHQQVNGTAGLGPPATVMAKPAVGAQVVHHPQLVGQTVLNPVTMVTMPSFPVSTLKLA
B2: MXI1 (protein, UniProt P50540 1-228)
chain: MERVRMINVQRLLEAAEFLERRERECEHGYASSFPSMPSPRLQHSKPPRRLSRAQKHSSGSSNTSTANRSTHNELEKNRRAHLRLCLERLKVLIPLGPDCTRHTTLGLLNKAKAHIKKLEEAERKSQHQLENLEREQRFLKRRLEQLQGPQEMERIRMDSIGSTISSDRSDSEREEIEVDVESTEFSHGEADSVSTTSISDLDDHSSLQSVGSDEGYSSASVKLSFAS
B3: MXD4 (protein, UniProt Q60948 1-209)
chain: MELNSLLLLLEAAEYLERRDREAEHGYASMLPFDGDFARKKTKTAGLVRKGPNNRSSHNELEKHRRAKLRLYLEQLKQLGPLGPDSTRHTTLSLLKRAKMHIKKLEEQDRRALSIKEQLQREHRFLKRRLEQLSVQSVERVRTDSTGSAVSTDDSEQEVDIEGMEFGPGELDSAGSSSDADDHYSLQSSGCSDSSYGHPCRRPGCPGLS

Target: FLAG-tagged MAX (UniProt P28574)
Assay: affinity purification with mass spectrometry; C2C12 cells transfected with flag vector or MAX-flag plasmid, 48 h; lysis in 0.1% NP-40, 50 mM HEPES pH 7.5, 250 mM NaCl, 5 mM EDTA; anti-flag magnetic beads overnight at 4 °C; five washes; eluate analysed on Bruker timsTOF Pro; flag-MAX sample compared with flag-vector sample

Molecule	binding
MXD1 (from UniProt P50538 1-227)	no binding
B1	no binding
B2	no binding
B3	no binding
